{"sequences": {"note": "The chains behind the UniProt entries cited, without tags or fusion partners. Where a name states a change or a piece, a line headed by the entry shows the natural chain unless it says otherwise.", "UniProt Q9BY12": "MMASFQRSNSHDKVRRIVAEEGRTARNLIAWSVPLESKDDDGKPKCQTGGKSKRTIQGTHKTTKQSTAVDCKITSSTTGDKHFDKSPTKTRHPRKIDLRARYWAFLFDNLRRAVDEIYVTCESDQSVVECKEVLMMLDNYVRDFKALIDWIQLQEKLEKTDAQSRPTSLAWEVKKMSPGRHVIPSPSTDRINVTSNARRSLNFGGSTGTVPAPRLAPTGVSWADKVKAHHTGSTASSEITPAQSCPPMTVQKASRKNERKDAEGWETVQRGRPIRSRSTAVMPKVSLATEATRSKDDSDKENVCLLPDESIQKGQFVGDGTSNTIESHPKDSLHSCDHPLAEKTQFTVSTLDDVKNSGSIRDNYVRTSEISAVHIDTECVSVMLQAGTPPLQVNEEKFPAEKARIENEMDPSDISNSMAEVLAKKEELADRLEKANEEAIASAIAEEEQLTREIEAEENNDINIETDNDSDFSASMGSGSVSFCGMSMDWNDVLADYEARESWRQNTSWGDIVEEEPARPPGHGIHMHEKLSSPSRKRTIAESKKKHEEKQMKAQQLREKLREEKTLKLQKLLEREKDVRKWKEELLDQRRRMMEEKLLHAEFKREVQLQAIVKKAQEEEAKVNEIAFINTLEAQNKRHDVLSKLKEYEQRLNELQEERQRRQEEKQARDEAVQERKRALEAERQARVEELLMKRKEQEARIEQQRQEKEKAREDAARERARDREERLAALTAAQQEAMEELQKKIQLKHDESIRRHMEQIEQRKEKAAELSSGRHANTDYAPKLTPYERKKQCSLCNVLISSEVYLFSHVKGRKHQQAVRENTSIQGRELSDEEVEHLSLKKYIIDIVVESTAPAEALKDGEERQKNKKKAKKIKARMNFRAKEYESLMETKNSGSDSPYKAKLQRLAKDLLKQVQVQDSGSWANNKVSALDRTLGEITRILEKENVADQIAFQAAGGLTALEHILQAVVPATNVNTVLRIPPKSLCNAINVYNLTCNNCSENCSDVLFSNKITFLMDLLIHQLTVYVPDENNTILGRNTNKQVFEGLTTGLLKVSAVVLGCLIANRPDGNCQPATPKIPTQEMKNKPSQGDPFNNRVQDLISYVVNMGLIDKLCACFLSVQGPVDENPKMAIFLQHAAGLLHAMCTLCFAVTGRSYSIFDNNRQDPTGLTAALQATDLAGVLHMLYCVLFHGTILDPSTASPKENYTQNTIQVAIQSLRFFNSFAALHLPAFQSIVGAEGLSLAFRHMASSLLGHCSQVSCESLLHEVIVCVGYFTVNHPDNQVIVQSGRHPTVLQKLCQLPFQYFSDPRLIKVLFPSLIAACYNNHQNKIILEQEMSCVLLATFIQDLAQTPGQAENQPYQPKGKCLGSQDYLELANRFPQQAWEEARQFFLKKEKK", "UniProt Q9HAJ7": "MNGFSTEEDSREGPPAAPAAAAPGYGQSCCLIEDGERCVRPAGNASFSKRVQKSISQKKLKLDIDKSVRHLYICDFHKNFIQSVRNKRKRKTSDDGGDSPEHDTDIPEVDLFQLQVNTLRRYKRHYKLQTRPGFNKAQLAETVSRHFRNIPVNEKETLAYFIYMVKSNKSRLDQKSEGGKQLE", "UniProt Q96NL6": "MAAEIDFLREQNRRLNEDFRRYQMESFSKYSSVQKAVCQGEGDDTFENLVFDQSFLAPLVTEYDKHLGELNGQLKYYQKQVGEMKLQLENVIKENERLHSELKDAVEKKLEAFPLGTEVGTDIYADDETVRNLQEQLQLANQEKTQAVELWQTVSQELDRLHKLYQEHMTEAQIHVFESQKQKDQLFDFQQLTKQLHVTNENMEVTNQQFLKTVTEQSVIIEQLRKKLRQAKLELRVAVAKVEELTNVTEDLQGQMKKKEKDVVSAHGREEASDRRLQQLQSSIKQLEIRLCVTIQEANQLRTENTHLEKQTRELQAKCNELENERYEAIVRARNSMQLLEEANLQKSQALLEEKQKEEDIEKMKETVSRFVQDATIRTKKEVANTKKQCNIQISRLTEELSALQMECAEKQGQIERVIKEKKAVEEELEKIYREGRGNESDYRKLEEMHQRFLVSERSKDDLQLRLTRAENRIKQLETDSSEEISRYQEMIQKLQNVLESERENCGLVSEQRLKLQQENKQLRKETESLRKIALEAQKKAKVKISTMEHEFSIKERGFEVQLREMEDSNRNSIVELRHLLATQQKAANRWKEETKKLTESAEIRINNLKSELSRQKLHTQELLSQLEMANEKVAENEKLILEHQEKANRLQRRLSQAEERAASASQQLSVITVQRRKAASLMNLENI", "UniProt Q9Y512": "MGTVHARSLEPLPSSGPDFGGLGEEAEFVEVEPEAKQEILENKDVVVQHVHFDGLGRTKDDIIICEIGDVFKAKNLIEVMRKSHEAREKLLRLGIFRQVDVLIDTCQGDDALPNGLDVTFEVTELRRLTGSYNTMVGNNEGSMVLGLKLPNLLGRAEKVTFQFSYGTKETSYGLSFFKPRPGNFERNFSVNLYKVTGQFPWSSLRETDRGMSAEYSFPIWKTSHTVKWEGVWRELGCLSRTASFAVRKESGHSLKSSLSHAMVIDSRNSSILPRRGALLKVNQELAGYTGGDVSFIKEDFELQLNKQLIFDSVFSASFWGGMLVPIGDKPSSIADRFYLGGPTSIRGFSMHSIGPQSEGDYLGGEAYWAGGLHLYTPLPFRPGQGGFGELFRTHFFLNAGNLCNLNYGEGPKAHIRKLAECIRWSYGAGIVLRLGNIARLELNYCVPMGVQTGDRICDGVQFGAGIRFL", "UniProt O95487": "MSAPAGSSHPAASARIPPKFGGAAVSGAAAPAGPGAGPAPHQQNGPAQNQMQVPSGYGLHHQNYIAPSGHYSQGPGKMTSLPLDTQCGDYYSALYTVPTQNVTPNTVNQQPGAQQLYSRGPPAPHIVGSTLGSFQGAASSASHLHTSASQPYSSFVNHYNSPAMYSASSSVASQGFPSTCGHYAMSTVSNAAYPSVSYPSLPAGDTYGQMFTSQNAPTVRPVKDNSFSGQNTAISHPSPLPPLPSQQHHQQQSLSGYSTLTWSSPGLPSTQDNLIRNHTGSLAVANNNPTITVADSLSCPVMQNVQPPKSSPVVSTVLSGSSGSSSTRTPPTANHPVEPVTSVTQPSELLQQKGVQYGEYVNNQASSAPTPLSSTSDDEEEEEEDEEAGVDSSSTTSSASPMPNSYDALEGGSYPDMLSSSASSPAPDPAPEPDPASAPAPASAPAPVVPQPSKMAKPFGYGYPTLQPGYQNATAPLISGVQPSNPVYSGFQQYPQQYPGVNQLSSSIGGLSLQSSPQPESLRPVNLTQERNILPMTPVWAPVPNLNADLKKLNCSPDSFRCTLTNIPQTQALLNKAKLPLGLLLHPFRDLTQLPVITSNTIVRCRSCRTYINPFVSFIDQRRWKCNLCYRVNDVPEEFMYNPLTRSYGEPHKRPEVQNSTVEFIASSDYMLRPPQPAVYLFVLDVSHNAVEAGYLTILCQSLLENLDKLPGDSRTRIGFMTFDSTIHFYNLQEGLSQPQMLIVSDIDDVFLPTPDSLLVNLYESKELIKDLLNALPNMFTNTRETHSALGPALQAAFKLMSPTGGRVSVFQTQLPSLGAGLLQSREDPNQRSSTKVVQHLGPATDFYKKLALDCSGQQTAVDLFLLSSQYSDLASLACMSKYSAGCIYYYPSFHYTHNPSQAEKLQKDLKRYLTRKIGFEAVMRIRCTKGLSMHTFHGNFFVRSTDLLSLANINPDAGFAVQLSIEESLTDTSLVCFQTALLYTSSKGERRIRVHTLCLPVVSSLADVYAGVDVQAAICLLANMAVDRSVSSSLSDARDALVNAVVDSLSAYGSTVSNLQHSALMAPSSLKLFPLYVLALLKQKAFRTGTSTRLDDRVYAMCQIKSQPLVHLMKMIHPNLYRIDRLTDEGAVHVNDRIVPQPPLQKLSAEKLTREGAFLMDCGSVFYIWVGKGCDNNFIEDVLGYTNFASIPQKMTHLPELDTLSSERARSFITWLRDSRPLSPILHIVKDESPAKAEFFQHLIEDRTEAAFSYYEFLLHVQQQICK", "UniProt P31040": "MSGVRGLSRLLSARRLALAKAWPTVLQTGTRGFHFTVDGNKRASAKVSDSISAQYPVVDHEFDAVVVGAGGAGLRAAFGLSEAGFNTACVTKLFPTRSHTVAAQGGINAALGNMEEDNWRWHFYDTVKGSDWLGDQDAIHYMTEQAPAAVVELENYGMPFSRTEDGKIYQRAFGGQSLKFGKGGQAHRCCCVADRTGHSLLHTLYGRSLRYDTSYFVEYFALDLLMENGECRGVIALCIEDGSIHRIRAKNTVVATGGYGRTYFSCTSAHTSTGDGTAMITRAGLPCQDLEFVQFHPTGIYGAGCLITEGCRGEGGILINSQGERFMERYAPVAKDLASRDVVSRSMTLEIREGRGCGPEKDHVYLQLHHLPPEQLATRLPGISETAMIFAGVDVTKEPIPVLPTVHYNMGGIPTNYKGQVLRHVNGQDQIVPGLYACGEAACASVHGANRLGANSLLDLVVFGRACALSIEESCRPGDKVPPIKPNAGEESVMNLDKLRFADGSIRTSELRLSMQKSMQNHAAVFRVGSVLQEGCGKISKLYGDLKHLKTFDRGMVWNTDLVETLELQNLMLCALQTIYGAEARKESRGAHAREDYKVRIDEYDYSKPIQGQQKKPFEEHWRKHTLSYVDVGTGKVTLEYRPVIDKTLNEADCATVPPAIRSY", "UniProt Q9Y6Y8": "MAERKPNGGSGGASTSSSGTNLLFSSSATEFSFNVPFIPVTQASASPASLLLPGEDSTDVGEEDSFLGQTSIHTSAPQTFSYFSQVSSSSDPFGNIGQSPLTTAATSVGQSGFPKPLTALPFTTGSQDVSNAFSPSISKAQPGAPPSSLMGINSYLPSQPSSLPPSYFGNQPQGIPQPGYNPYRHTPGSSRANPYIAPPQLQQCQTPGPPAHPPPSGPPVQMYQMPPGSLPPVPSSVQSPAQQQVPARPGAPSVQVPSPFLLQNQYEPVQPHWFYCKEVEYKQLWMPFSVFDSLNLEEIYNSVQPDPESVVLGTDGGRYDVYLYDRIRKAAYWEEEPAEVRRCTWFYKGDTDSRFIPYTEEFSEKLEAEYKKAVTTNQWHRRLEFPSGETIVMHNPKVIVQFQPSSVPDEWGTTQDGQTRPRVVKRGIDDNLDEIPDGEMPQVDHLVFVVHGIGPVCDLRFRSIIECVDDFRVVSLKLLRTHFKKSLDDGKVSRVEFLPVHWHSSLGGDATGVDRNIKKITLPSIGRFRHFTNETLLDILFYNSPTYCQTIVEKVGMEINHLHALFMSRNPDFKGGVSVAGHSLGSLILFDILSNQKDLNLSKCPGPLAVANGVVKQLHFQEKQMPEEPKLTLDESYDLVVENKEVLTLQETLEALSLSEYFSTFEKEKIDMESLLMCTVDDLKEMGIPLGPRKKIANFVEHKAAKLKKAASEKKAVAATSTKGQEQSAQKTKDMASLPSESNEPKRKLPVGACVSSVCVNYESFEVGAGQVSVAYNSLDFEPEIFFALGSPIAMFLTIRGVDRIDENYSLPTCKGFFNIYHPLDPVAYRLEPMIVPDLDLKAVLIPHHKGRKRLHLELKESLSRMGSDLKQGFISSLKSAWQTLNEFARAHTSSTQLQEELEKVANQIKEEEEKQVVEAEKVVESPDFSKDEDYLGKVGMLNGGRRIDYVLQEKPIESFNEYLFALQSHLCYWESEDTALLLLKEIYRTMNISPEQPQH", "UniProt P22307": "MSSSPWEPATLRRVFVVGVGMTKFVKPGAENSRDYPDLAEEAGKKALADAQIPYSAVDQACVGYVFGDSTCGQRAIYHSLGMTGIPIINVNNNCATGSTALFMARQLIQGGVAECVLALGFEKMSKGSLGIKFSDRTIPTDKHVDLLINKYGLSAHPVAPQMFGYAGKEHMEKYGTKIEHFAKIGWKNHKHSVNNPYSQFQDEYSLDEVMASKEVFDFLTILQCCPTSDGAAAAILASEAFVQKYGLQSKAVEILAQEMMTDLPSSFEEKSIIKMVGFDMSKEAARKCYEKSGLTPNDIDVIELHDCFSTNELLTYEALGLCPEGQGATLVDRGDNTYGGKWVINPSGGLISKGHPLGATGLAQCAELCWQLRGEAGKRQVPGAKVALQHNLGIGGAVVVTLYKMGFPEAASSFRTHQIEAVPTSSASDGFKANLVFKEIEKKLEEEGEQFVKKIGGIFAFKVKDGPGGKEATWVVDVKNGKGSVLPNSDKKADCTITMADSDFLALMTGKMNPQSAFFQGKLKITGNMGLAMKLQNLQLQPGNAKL", "UniProt Q9NR31": "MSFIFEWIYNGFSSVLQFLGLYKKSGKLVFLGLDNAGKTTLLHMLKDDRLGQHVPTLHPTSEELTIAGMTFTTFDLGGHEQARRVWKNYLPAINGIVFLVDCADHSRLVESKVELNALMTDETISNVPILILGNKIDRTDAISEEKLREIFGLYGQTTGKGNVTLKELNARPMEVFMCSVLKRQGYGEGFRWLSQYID"}, "source": "the supplement of paper PMC12067093", "about": "“Discovery and optimisation of a covalent ligand for TRIM25 and its application to targeted protein ubiquitination” (Chemical Science, 2025)", "compound": "CC1Cc2ccccc2N1C(=O)C1CCCN(C1)C(=O)CCl (mixture of isomers) [TRIM25 ligand 11 (diastereomer mixture)]", "assay": "probe-labelled cysteine peptide fold change vs DMSO (competition) (log2 fold change); higher = less target engagement (more negative = stronger competition)", "settings": "THP-1, incubation time: 4 h", "note": "This is one part of the list.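 Note: competitive chemoproteomic profiling in live THP-1 cells with an iodoacetamide desthiobiotin (IA-DTB) probe, comparing probe-labelled peptide intensities in compound-treated cells against DMSO-treated controls.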", "data": [{"target": "SCAPER_Q9BY12_336_DSLHSCDHPLAEK (UniProt Q9BY12)", "values": [{"measurement": "probe-labelled cysteine peptide fold change", "setting": "10 µM", "value": -0.0351}, {"measurement": "probe-labelled cysteine peptide fold change", "setting": "50 µM", "value": -0.308}]}, {"target": "SAP30L_Q9HAJ7_74_HLYICDFHK (UniProt Q9HAJ7)", "values": [{"measurement": "probe-labelled cysteine peptide fold change", "setting": "10 µM", "value": -0.136}, {"measurement": "probe-labelled cysteine peptide fold change", "setting": "50 µM", "value": -0.122}]}, {"target": "SCLT1_Q96NL6_408_LTEELSALQMECAEK (UniProt Q96NL6)", "values": [{"measurement": "probe-labelled cysteine peptide fold change", "setting": "10 µM", "value": -0.198}, {"measurement": "probe-labelled cysteine peptide fold change", "setting": "50 µM", "value": -0.0431}]}, {"target": "SAMM50_Q9Y512_403_THFFLNAGNLCNLNYGEGPK (UniProt Q9Y512)", "values": [{"measurement": "probe-labelled cysteine peptide fold change", "setting": "10 µM", "value": 0.0447}, {"measurement": "probe-labelled cysteine peptide fold change", "setting": "50 µM", "value": 0.0425}]}, {"target": "SEC13_P55735_153_KINNAHTIGCNAVSWAPAVVPGSLIDHPSGQK (UniProt P55735)", "values": [{"measurement": "probe-labelled cysteine peptide fold change", "setting": "10 µM", "value": 0.32}, {"measurement": "probe-labelled cysteine peptide fold change", "setting": "50 µM", "value": -0.0965}]}, {"target": "SEC24B_O95487_1267_TEAAFSYYEFLLHVQQQICK (UniProt O95487)", "values": [{"measurement": "probe-labelled cysteine peptide fold change", "setting": "10 µM", "value": 0.224}, {"measurement": "probe-labelled cysteine peptide fold change", "setting": "50 µM", "value": 0.163}]}, {"target": "SEC24B_O95487_1175_GCDNNFIEDVLGYTNFASIPQK (UniProt O95487)", "values": [{"measurement": "probe-labelled cysteine peptide fold change", "setting": "10 µM", "value": 0.0861}, {"measurement": "probe-labelled cysteine peptide fold change", "setting": "50 µM", "value": 0.0767}]}, {"target": "SEC31A_O94979_216_MHCSGLAWHPDVATQMVLASEDDRLPVIQMWDLR (UniProt O94979)", "values": [{"measurement": "probe-labelled cysteine peptide fold change", "setting": "10 µM", "value": 0.0315}, {"measurement": "probe-labelled cysteine peptide fold change", "setting": "50 µM", "value": -0.134}]}, {"target": "SDHA_P31040_443_HVNGQDQIVPGLYACGEAACASVHGANR (UniProt P31040)", "values": [{"measurement": "probe-labelled cysteine peptide fold change", "setting": "10 µM", "value": -0.00477}, {"measurement": "probe-labelled cysteine peptide fold change", "setting": "50 µM", "value": -0.144}]}, {"target": "SEC23IP_Q9Y6Y8_678_IDMESLLMCTVDDLK (UniProt Q9Y6Y8)", "values": [{"measurement": "probe-labelled cysteine peptide fold change", "setting": "10 µM", "value": 0.0286}, {"measurement": "probe-labelled cysteine peptide fold change", "setting": "50 µM", "value": -0.137}]}, {"target": "SCP2_P22307_495_KADCTITMADSDFLALMTGK (UniProt P22307)", "values": [{"measurement": "probe-labelled cysteine peptide fold change", "setting": "10 µM", "value": -0.0486}, {"measurement": "probe-labelled cysteine peptide fold change", "setting": "50 µM", "value": 0.0238}]}, {"target": "SATB2_Q9UPW6_246_VERENLSDYCVLGQRPMHLPNMNQLASLGK (UniProt Q9UPW6)", "values": [{"measurement": "probe-labelled cysteine peptide fold change", "setting": "10 µM", "value": -0.119}, {"measurement": "probe-labelled cysteine peptide fold change", "setting": "50 µM", "value": -0.145}]}, {"target": "SAR1A_Q9NR31_178_ELNARPMEVFMCSVLK (UniProt Q9NR31)", "values": [{"measurement": "probe-labelled cysteine peptide fold change", "setting": "10 µM", "value": -0.219}, {"measurement": "probe-labelled cysteine peptide fold change", "setting": "50 µM", "value": -0.202}]}]}
